This is one part of the list. The main result of the screen is listed elsewhere. These columns were measured beside it and carry no call. The list favours compounds with an active or inconclusive main result. The note in brackets gives the kind of curve behind each potency; many fits are weak.
Assay: qHTS Assay for Lipid Storage Modulators in Drosophila S3 Cells;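 as to cell number change: cells counted by Cell Tracker Red CMTPX staining in the red channel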
Settings: BODIPY lipid droplet fluorescence, 18-24 h; for cell number change: measured here: cell count max response, cells fed with added oleic acid
Method in brief: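 Drosophila S3 cells loaded with oleic acid (400 uM, as added) and compounds at several concentrations; lipid droplets imaged by 488-nm laser-scanning cytometry, 500–530 nm intensity and object ratio to cell channel. Percent activity normalized to 20 uM Triacsin C.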

[1] = measured here: cell number channel AC50, cells fed with added oleic acid
[2] = measured here: lipid fluorescence (Fed channel) AC50, cells fed with added oleic acid

SMILES: Nc1c(N(Cc2ccccc2)C(=O)COc2cccc(Cl)c2)c(=O)[nH]c(=O)n1Cc1ccccc1
- cell number change: 125%
- AC50 [1]: 29.1 µM [rising, single point]

SMILES: CC(=O)Nc1ccc(SCCCC(=O)c2ccccc2)cc1
- cell number change: 30.2%
- AC50 [1]: 29.1 µM [rising, single point]
- AC50 [2]: 20.6 µM [rising, partial curve]

SMILES: CCOc1cc(/C=C/C(=O)O)ccc1OCCOc1ccccc1
- cell number change: 5.13%

SMILES: Cc1cc(Nc2ccc(F)cc2C)n2nc(C)nc2n1
- cell number change: -2.43%

SMILES: CCOc1ccc(-n2cc(C(=O)Nc3ccc(Cl)cn3)c3cc(OC)c(OC)cc3c2=O)cc1
- cell number change: 8.94%

SMILES: CCC1C(=O)NCCN1C(=O)c1ccc2nc(Cc3cccc(Cl)c3)oc2c1 (stereo not drawn)
- cell number change: -42.1%
- AC50 [1]: 0.517 µM [falling, full curve, poor fit]
- AC50 [2]: 29.1 µM [rising, single point]

SMILES: CC(C)C1C(c2ccccc2)N(C)C(c2ccccc2)CC1(O)c1ccccc1 (stereo not drawn)
- cell number change: -11.5%
- AC50 [2]: 0.651 µM [falling, single point]

SMILES: COc1ccc(OC)c(NC(=O)c2cnc(Nc3ccccc3OC)c3ccccc23)c1
- cell number change: 7.05%
- AC50 [1]: 0.116 µM [rising, full curve, poor fit]
- AC50 [2]: 0.82 µM [rising, full curve]

SMILES: CCC1Oc2ccccc2N(CC(=O)NCC2CCCO2)C1=O (stereo not drawn)
- cell number change: 20%

SMILES: Cc1ccc(OCCNC(=O)CCNS(=O)(=O)c2ccc3ccccc3c2)cc1
- cell number change: -7.13%
- AC50 [2]: 6.51 µM [rising, partial curve]

SMILES: COC(=O)c1ccc(/C=C/C(=O)OCC(=O)Nc2ncc(Cl)cc2Cl)cc1
- cell number change: -24.8%
- AC50 [1]: 0.184 µM [falling, full curve, poor fit]
- AC50 [2]: 0.146 µM [falling, full curve, poor fit]

SMILES: Cc1ccc(C(C(=O)NC2CCCC2)N(C(=O)c2csnn2)c2cccc(F)c2)o1 (stereo not drawn)
- cell number change: 29%

SMILES: CN(C)/N=C/c1ccc(N2CCOCC2)cc1
- cell number change: 13.2%
- AC50 [1]: 0.00461 µM [falling, full curve, poor fit]

SMILES: Cc1ccc(NS(=O)(=O)c2c(C)noc2C)cc1
- cell number change: 22.2%

SMILES: CCCC[C@@H]1CNCCN1CC1(c2ccccc2)CC1
- cell number change: -11.4%
- AC50 [1]: 0.0291 µM [rising, partial curve, poor fit]
- AC50 [2]: 20.6 µM [falling, partial curve]

SMILES: O=C(CN1CCC(NC(=O)C2CCCCC2)CC1)NCc1ccco1
- cell number change: 4.88%
- AC50 [2]: 0.58 µM [rising, single point]

SMILES: CCOc1cc(CNn2cnnc2SCC(=O)NC(C)(C)C)ccc1OCC(=O)NC(C)(C)C
- cell number change: 15.3%
- AC50 [2]: 3.98 µM [rising, partial curve]

SMILES: CN(C)CC(C)(C)CNS(=O)(=O)CC12CCC(CC1=O)C2(C)C (stereo not drawn)
- cell number change: -61.6%
- AC50 [1]: 13 µM [falling, partial curve]
- AC50 [2]: 16.4 µM [falling, partial curve]

SMILES: O=C(Nc1ccnn1C1CCN(Cc2ccccc2)CC1)C1CCCC1
- cell number change: 5.27%

SMILES: O=C(O)CCn1c(=O)sc2ccccc21
- cell number change: 8.78%
- AC50 [2]: 25.9 µM [rising, partial curve]

SMILES: O=C(CSc1nnc(-c2ccco2)n1-c1ccccc1)NCC1CCCO1 (stereo not drawn)
- AC50 [2]: 29.1 µM [falling, single point]

SMILES: CC1CC(C)CN(CCCNC(=O)Cn2ncc3c(=O)oc4ccccc4c32)C1 (stereo not drawn)
- cell number change: 35.8%
- AC50 [1]: 7.31 µM [rising, partial curve, poor fit]
- AC50 [2]: 10.3 µM [rising, partial curve, poor fit]

SMILES: CCc1ccccc1NC1=NCC(=O)N1C1CCCCC1
- cell number change: -40.3%
- AC50 [1]: 29.1 µM [falling, single point]
- AC50 [2]: 6.51 µM [falling, partial curve, poor fit]

SMILES: CCCc1nc2oc3c(NCCN(C)C)ncnc3c2c2c1CCCC2
- cell number change: -13.3%
- AC50 [2]: 6.51 µM [rising, single point]

SMILES: COC(=O)C(=CC(=CN(C)C)C=C(C(=O)OC)C(=O)OC)C(=O)OC
- cell number change: -37.5%
- AC50 [1]: 29.1 µM [falling, single point]

SMILES: CCOc1ccc(CCNC(=O)COC(=O)c2ccc(Cl)nc2)cc1OCC
- cell number change: -19%
- AC50 [1]: 2.31 µM [falling, single point]
- AC50 [2]: 2.91 µM [falling, full curve, poor fit]

SMILES: O=C(COc1ccc(Br)cc1CO)Nc1ccccc1
- cell number change: -7.39%

SMILES: CCOc1ccc(NC(=O)CN(C)C(=O)c2ccc3c(c2)C(=O)N(CCC(C)C)C3=O)cc1OCC
- AC50 [2]: 6.51 µM [rising, single point]

SMILES: Cc1ccc(-c2nnn(CC(=O)N(CC(=O)NC3CCCCC3)c3ccccc3F)n2)o1
- cell number change: 7.26%

SMILES: O=C(NCCCN1CCOCC1)c1ccccc1NS(=O)(=O)c1ccc(Br)cc1
- AC50 [1]: 0.58 µM [rising, single point]
- AC50 [2]: 5.17 µM [rising, single point]

SMILES: CC1CCCC(NC(=O)CN(C)CC(=O)Nc2ccc(F)cc2)C1C (stereo not drawn)
- cell number change: 9.27%
- AC50 [2]: 0.092 µM [rising, single point]

SMILES: Cc1ccc(C)c(OCCC(=O)NNC(=O)c2ccccc2F)c1
- cell number change: 12%

SMILES: O=S(=O)(O)Oc1c[nH]c2ccccc12
- cell number change: 4.36%
- AC50 [2]: 6.51 µM [rising, single point]

SMILES: Cc1cc(OCC(=O)C(C)(C)C)c2c(C)c(C)c(=O)oc2c1
- cell number change: -27.1%
- AC50 [2]: 29.1 µM [falling, single point]

SMILES: Cc1ccc(C)c(S(=O)(=O)N2CCN(C(=O)CCNC(=O)c3ccc(Br)cc3)CC2)c1
- cell number change: 93.3%

SMILES: CCO[C@@H]1OC(C(=O)N2CCN(Cc3ccc4c(c3)OCO4)CC2)=C[C@H](c2ccc(C(F)(F)F)cc2)[C@H]1CCCO
- cell number change: -23.3%
- AC50 [2]: 29.1 µM [falling, single point]

SMILES: COC(=O)C(C(=O)OC)c1ncccc1[N+](=O)[O-]
- cell number change: -44.9%
- AC50 [1]: 29.1 µM [falling, single point]

SMILES: CCOc1ccc(C2NC(=O)C(C#N)=C(S)N2c2ccc(C)cc2)cc1OC (stereo not drawn)
- cell number change: 17.5%
- AC50 [1]: 0.00411 µM [falling, full curve, poor fit]

SMILES: COc1ccc(Cc2noc(CN(C)CC(O)c3ccccc3)n2)cc1OC (stereo not drawn)
- cell number change: 22.6%
- AC50 [2]: 9.2 µM [rising, partial curve]

SMILES: CCOC(=O)C1C(=O)NC(N2CCN(Cc3ccccc3)CC2)=NC1c1ccccc1 (stereo not drawn)
- cell number change: 20.5%
- AC50 [2]: 0.058 µM [falling, full curve, poor fit]

SMILES: COc1ccc(CCNC(=O)CN(c2cc(OC)ccc2OC)S(=O)(=O)c2ccccc2)cc1
- cell number change: -14.5%
- AC50 [2]: 35.5 µM [falling, single point]

SMILES: C=CCn1c(SCC(=O)NC2CCCc3ccccc32)nnc1-c1ccncc1 (stereo not drawn)
- cell number change: -19.5%
- AC50 [1]: 0.231 µM [falling, full curve, poor fit]
- AC50 [2]: 6.51 µM [rising, single point]

SMILES: CC1(C)CC(=O)C=C(NCC(=O)O)C1
- cell number change: -4%

SMILES: Cc1nc(-c2ccc(NC(=O)CC(C)C)cc2)cs1
- cell number change: 36.7%
- AC50 [1]: 5.17 µM [rising, partial curve]

SMILES: C/C(=N\Nc1ccccn1)c1ccc2c(c1)OCO2
- cell number change: 10.8%
- AC50 [1]: 0.00517 µM [rising, full curve, poor fit]
- AC50 [2]: 0.00461 µM [rising, full curve]

SMILES: CCOC(=O)CON1C(=O)c2ccccc2C1=O
- cell number change: -13.7%
- AC50 [1]: 4.11 µM [falling, partial curve, poor fit]
- AC50 [2]: 14.6 µM [falling, partial curve]

SMILES: O=C(CCC(=O)NNC(=O)c1ccc([N+](=O)[O-])cc1)NCc1ccccc1
- cell number change: 134%

SMILES: CC(=O)c1cnn(-c2ccc(Cl)cc2)c1C
- cell number change: 14.1%
- AC50 [2]: 18.4 µM [rising, single point]

SMILES: Fc1cc(Br)ccc1COc1ccc(-c2nnco2)cc1
- cell number change: 22.5%
- AC50 [2]: 9.2 µM [rising, partial curve]

SMILES: CCC1CCCCN1C(=O)CSc1nnc(CNC(=O)c2c(F)cccc2Cl)o1 (stereo not drawn)
- cell number change: -13.6%

SMILES: C/C(=N\NC1=NCCN1)c1ccc(N)c([N+](=O)[O-])c1
- cell number change: -3.74%

SMILES: COC(=O)C1CCN(Cc2cc(=O)oc3cc(OC)ccc23)CC1
- cell number change: 24%
- AC50 [2]: 11.6 µM [rising, partial curve]

SMILES: CCCn1c(N)c(C(=O)CSc2ncn[nH]2)c(=O)n(C)c1=O
- cell number change: 17.1%
- AC50 [2]: 0.116 µM [falling, full curve, poor fit]

SMILES: N#Cc1ccc2[nH]c(CO)c(-c3ccccc3)c2c1
- cell number change: 3.24%
- AC50 [2]: 14.6 µM [rising, single point]

SMILES: CCSc1nnc(NC(=O)c2cccc3ccccc23)s1
- cell number change: -19.7%
- AC50 [2]: 3.26 µM [falling, single point]

SMILES: CC(C)Cc1ccc(C(C)NC(=O)Cc2ccc(S(=O)(=O)N3CCOCC3)s2)cc1 (stereo not drawn)
- cell number change: 13.8%
- AC50 [2]: 0.116 µM [falling, full curve, poor fit]

SMILES: COc1ccc(-c2cn3c(C)c(C(=O)N4CCN(c5ccccc5F)CC4)sc3n2)cc1
- cell number change: -6.63%
- AC50 [2]: 29.1 µM [falling, single point]

SMILES: CC#CC[N+](C)(C)CCCCCC
- cell number change: -11.8%
- AC50 [2]: 0.103 µM [falling, full curve, poor fit]

SMILES: O=C(c1ccc(Cl)c(S(=O)(=O)NCc2ccco2)c1)N1CCN(c2ccc(F)cc2)CC1
- AC50 [1]: 1.84 µM [rising, partial curve]

SMILES: CN(C)S(=O)(=O)c1cccc(-c2nnc(SCc3ccc4c(c3)OCCO4)o2)c1
- cell number change: -9.44%

SMILES: COc1ccc(C)cc1NC(=O)c1sc2nc(C)nc(N3CCOCC3)c2c1C
- cell number change: 12.8%
- AC50 [2]: 5.17 µM [falling, single point]

SMILES: Cc1ccc(NC(=O)CSCC(=O)Nc2ccccc2C(=O)NC2CC2)cc1
- cell number change: 21.2%

SMILES: CC(CNC(=O)c1ccco1)NC(=O)c1ccco1 (stereo not drawn)
- cell number change: 10.5%
- AC50 [2]: 35.5 µM [falling, single point]
